PubChem BioAssay AID1259278 | Sanger Institute | 2017

Purpose: 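Follow-up of kinome siRNA hits that combine with three anchor drugs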 (follow-up of hits)
Cell system: human HT55 colorectal cancer cells
Knock-down reagent: single siRNA against human genes
Conditions: anchor drugs added to knock-down cells: cetuximab 5 µg/ml, trametinib 10 nM or BYL719 1 µM, against DMSO vehicle; chosen to hurt viability little alone
Measured: 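Viability averaged against the control control pool 2 (non-targeting), plus a synergy score of knock-down with drug for each anchor drug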
Scale: synergy score with BYL719 and synergy score with cetuximab and synergy score with trametinib: higher = stronger combined killing with knock-down
Call rule: 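a knock-down is called active when its synergy score is above 0.10 for one or more anchor drugs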
Meaning of the calls: active = synergy with an anchor drug; inactive = no synergy
The deposit covers 160 reagents; this is a part drawn at random. 54 of them (34%) count as active. 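Each call rests on one siRNA duplex in one cell line; gene-level support needs several duplexes and lines.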 Unmarked entries are inactive. Reagents against one gene are numbered here. Not all columns of the deposit are shown. Reagent sequences are not shown. Not stated in the record: the amount of reagent, the time to read-out.

no.	gene	reagent	synergy score with BYL719	synergy score with cetuximab	synergy score with trametinib
1	IKBKB	1	-0.176 (active)	0.114	-0.182
2	IKBKB	2	-0.0151	-0.0377	-0.0215
3	IKBKB	3	-0.196	0.0983	0.0466
4	IKBKB	4	-0.225	-0.0394	-0.124
5	SF3B1	1	-0.0081	0.0746	0.0367
6	SF3B1	2	-0.00522	0.0273	0.00392
7	SF3B1	3	0.105 (active)	0.0347	0.053
8	SF3B1	4	-0.0114	-0.0317	-0.0737
9	HSPB8	1	0.0106 (active)	0.0328	0.191
10	HSPB8	2	-0.0934	-0.0782	-0.0703
11	HSPB8	3	-0.286	-0.0567	0.032
12	HSPB8	4	-0.321 (active)	0.189	0.212
13	PIM1	1	-0.133	0.0441	0.0299
14	PIM1	2	0.133 (active)	0.124	0.0125
15	PIM1	3	0.00829	0.0522	-0.0322
16	PIM1	4	0.108 (active)	-0.02	0.0711
17	ACVR1	1	-0.321	-0.171	0.0346
18	ACVR1	2	-0.0243 (active)	0.0857	0.253
19	ACVR1	3	-0.134	0.0863	0.0675
20	ACVR1	4	-0.0252 (active)	0.149	0.14
21	PAK1	1	0.134 (active)	0.182	0.158
22	PAK1	2	-0.00705 (active)	0.0774	0.132
23	PAK1	3	-0.0856	-0.0473	0.0906
24	PAK1	4	-0.399	-0.01	-0.178
25	RPS6KA4	1	-0.257	-0.139	-0.168
26	RPS6KA4	2	-0.156	-0.0281	-0.105
27	RPS6KA4	3	-0.0225	-0.0706	-0.00674
28	RPS6KA4	4	0.0239	-0.0902	0.0724
29	HUNK	1	0.00177 (active)	0.119	-0.0123
30	HUNK	2	-0.123 (active)	0.133	0.0432
31	HUNK	3	-0.0102	0.0639	0.0324
32	HUNK	4	0.0983 (active)	0.188	0.154
33	GTF2H1	1	-0.086	0.0118	-0.0577
34	GTF2H1	2	-0.108	-0.169	-0.00761
35	GTF2H1	3	-0.0666	-0.00284	-0.0475
36	GTF2H1	4	-0.0136 (active)	-0.0756	0.127
37	EPHA6	1	-0.115	0.0701	0.000774
38	EPHA6	2	-0.119	0.0369	-0.00586
39	EPHA6	3	-0.0507 (active)	0.0292	0.243
40	EPHA6	4	0.00559 (active)	0.222	0.208

3 consecutive reagents already listed:
no.	gene	reagent	synergy score with BYL719	synergy score with cetuximab	synergy score with trametinib
10	HSPB8	2	-0.0934	-0.0782	-0.0703
11	HSPB8	3	-0.286	-0.0567	0.032
12	HSPB8	4	-0.321 (active)	0.189	0.212
